The supplement of paper PMC6078165

Tested on: BT20
Assay: relative JC-1 red fluorescence (viability) vs pre-drug, coculture with fibroblast (fraction); higher = more viable cancer cells
Method: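 JC-1 labelled TNBC cells cocultured 1:1 (1,500 cells each) with CellTrace Violet stained primary or stromal fibroblasts in 384-well plates in FluoroBrite medium, treated with one of 42 anticancer drugs at 0.1, 1, 10 or 100 uM. JC-1 red fluorescence (mitochondrial integrity in cancer cells only) was read by plate reader every 8 h for 72 h. Values are normalised to each well's pre-drug value. The stock of one drug was tenfold lower, so its dose labels may be too high.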

CN(C)CCOc1ccc(/C(=C(/CCCl)c2ccccc2)c2ccccc2)cc1 [Toremifene]
relative JC-1 red fluorescence
Details	8 h	16 h	24 h	32 h	40 h	48 h	56 h	64 h	72 h
10 µM, coculture fibroblast: C12385	0.88404	0.827	0.776	0.713	0.66	0.642	0.613	0.5884	0.566
10 µM, coculture fibroblast: H6013	0.917	0.815	0.939	0.928	0.903	0.844	0.828	0.785	0.758
10 µM, coculture fibroblast: H6019	0.856	0.815	0.778	0.723	0.678	0.646	0.609	0.577	0.547
10 µM, coculture fibroblast: H6076	0.771	0.788	0.9257	0.86554	0.7934	0.745	0.697	0.6845	0.652
10 µM, coculture fibroblast: H6231	0.81	0.876	0.906	0.844	0.7959	0.744	0.719	0.6796	0.642
10 µM, coculture fibroblast: HADF	0.861	0.87	0.91	0.93	0.898	0.877	0.851	0.828	0.797
10 µM, coculture fibroblast: HCFa	0.839	0.842	0.829	0.862	0.888	0.791	0.812	0.814	0.768
10 µM, coculture fibroblast: HCPF	0.846	0.954	0.926	0.8613	0.8153	0.787	0.731	0.72	0.686
10 µM, coculture fibroblast: HHSteC	0.94942	0.912	0.89	0.836	0.793	0.771	0.734	0.73	0.711
10 µM, coculture fibroblast: HMF	0.816	0.847	0.94	0.887	0.845	0.793	0.76	0.721	0.692
10 µM, coculture fibroblast: HPFa	0.95	0.916	0.764	0.876	0.845	0.822	0.791	0.771	0.733
10 µM, coculture fibroblast: HUF	0.89668	0.839	0.824	0.755	0.723	0.698	0.673	0.647	0.622
10 µM, coculture fibroblast: Hs5	0.717	0.821	0.9418	0.881	0.8024	0.75	0.696	0.658	0.634
10 µM, coculture fibroblast: Hs27A	0.766	0.73	0.952	0.823	0.9	0.838	0.931	0.903	0.866
10 µM, coculture fibroblast: Hs343T	0.742	0.709	0.9512	0.9064	0.856	0.808	0.731	0.695	0.655
10 µM, coculture fibroblast: WS1	0.913	0.906	0.902	0.905	0.81	0.82	0.806	0.885	0.84
100 µM, coculture fibroblast: C12385	0.452	0.335	0.322	0.27	0.202	0.174	0.143	0.12	0.0927
100 µM, coculture fibroblast: H6013	0.614	0.505	0.591	0.4662	0.414	0.367	0.355	0.317	0.263
100 µM, coculture fibroblast: H6019	0.455	0.362	0.38	0.334	0.286	0.26	0.233	0.209	0.187
100 µM, coculture fibroblast: H6076	0.568	0.485	0.445	0.404	0.374	0.333	0.298	0.258	0.206
100 µM, coculture fibroblast: H6231	0.464	0.334	0.273	0.233	0.208	0.174	0.14	0.113	0.0844
100 µM, coculture fibroblast: HADF	0.453	0.306	0.349	0.244	0.217	0.171	0.152	0.13	0.0894
100 µM, coculture fibroblast: HCFa	0.652	0.52	0.587	0.489	0.462	0.434	0.42	0.392	0.352
100 µM, coculture fibroblast: HCPF	0.584	0.493	0.426	0.387	0.356	0.31	0.271	0.232	0.171
100 µM, coculture fibroblast: HHSteC	0.403	0.302	0.328	0.233	0.196	0.164	0.142	0.11	0.0658
100 µM, coculture fibroblast: HMF	0.603	0.555	0.54	0.492	0.469	0.409	0.374	0.329	0.267
100 µM, coculture fibroblast: HPFa	0.539	0.445	0.502	0.422	0.399	0.362	0.348	0.328	0.274
100 µM, coculture fibroblast: HUF	0.568	0.419	0.439	0.399	0.377	0.348	0.34	0.322	0.305
100 µM, coculture fibroblast: Hs5	0.666	0.694	0.663	0.611	0.576	0.518	0.467	0.409	0.341
100 µM, coculture fibroblast: Hs27A	0.557	0.427	0.486	0.335	0.295	0.267	0.246	0.219	0.175
100 µM, coculture fibroblast: Hs343T	0.453	0.317	0.304	0.268	0.25	0.213	0.183	0.152	0.11
100 µM, coculture fibroblast: WS1	0.297	0.196	0.195	0.15	0.109	0.0853	0.0619	0.044	0.0225

Values are relative to the signal before dosing, not to a vehicle control; the signal also falls without drug.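 Fibroblast labels denote human fibroblasts, mainly primary ones from uterus (C12385, HUF), lung (H6013), bone (Hs27A), adrenal (HADF) and skin (WS1), plus mammary HMF and breast cancer-associated Hs343T. Cancer cells are basal-like or mesenchymal-like triple-negative breast cancer lines. A hit is a response shift exceeding 3x replicate standard deviation. The tissue of the other fibroblasts is not given here.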
